This note sets out measurements from ChEMBL document CHEMBL1821705 (J Med Chem, 2011).

For this assay, the system named is KARPAS-299. In words: cells. The following applies: Homo sapiens, KARPAS-299, 96 h.

`C#Cc1cc2c(cc1N1CCN(C3COC3)CC1)C(C)(C)c1[nH]c3cc(C#N)ccc3c1C2=O` displayed an IC50 of 4.2 nM.

In general, IC50 refers to the midpoint of a concentration-inhibition curve. Low values mean higher potency, high ones lower potency.
